The values that follow come from US12642851B2 (Barinthus Biotherapeutics North America, Inc., priority 2022, dated 2026).

The first data set in a line: Fmoc solid-phase peptide synthesis. The conditions noted are these: whole synthesis, AUC at 220 nm.
Consider (a-Mannose-PEG3)4K2K-PEG24-Ahx-W5, for which the “purity (crude or final not stated)” value came out at 97.9%.

The next data set in a line: general procedure: Fmoc solid-phase peptide synthesis. The conditions noted are these: conjugation step.
Consider DBCO-Ahx-WWE(Torin-1-Piperazine)WW, for which the conjugation yield is reported as 40% yield.

Regarding DBCO-Ahx-WWE(VZ-PAB-Torin-1)WW, the conjugation yield worked out at 33% yield. Still for that read-out and setting: next, DBCO-Ahx-WWE(VZ-Torin-1)WW: 35% yield; DBCO-Ahx-WWEWW: 46%; DBCO-Ahx-WWK(Everolimus)WW: 31% yield. For the substance DBCO-Ahx-WWK(ZV-Everolimus)WW, the conjugation yield was determined as 29% yield. Substance DBCO-Ahx-WWK(ZV-Torin-1-C1)WW had a conjugation yield of 21% yield. DBCO-Ahx-WWK(ZV-Torin-1-C3)WW gave a conjugation yield of 20% yield. For the substance DBCO-Ahx-WWWWW, the conjugation yield came to 71.9%.

In turn, Fmoc-Ahx-WWK(ZV)WW showed a conjugation yield of 58% yield. For the substance “OH-PEG24-VZQLQPFPQPELPYPQPQLPYPQPQPFRSPVZK(DBCO)”, the conjugation yield stood at 63% yield.

Still in this data set, the particulars now being: conjugation step, 220 nm.
As to “OH-PEG24-VZQLQPFPQPELPYPQPQLPYPQPQPFRSPVZK(DBCO)”, the “final HPLC purity” value is reported as 97.8% AUC at 220 nm.

Still in this data set, the particulars now being: conjugation step, AUC at 220 nm.
As to “(a-Mannose-PEG3)4K2K-PEG24-(X-DBCO)-Ahx-2B3W2”, the “crude HPLC purity” value is listed as 97.5%. Same read-out and setting: the figure for TT-PEG12-(N3-DBCO)-Ahx-W5 is 83%.

As to TT-PEG24-(N3-DBCO)-Ahx-W5, the “crude HPLC purity” value was determined as 84%.

The same data set, now with this note: conjugation step, HPLC AUC at 220 nm or 254 nm.
As for DBCO-Ahx-(Glu)3(Trp)2, the “final HPLC purity” value is over 95%. Regarding DBCO-Ahx-WWWWW, the “final HPLC purity” value is on record as 92.6%.
